In article PMC8287954:
Residue numbers refer to the chain shown, from its start. Numbers in names are those of the source. No constants are given. Whether binding was seen depends on the method and setting. Some binding calls cover weakened binding; strength is not graded here. For part of these data: Where a sequence is shown, tags or fusion partners need not be part of it. One block for each binder: values may come before it.

Key:
[1] = target: T1, Schizosaccharomyces pombe Gemin2 (Schizosaccharomyces pombe) (UniProt P0CU08); assay: co-purification of co-expressed proteins; bacterial co-expression; human: Ni-NTA and chitin beads by the Mxe intein-His6 on Gemin2, then Superdex 200
T1 sequence: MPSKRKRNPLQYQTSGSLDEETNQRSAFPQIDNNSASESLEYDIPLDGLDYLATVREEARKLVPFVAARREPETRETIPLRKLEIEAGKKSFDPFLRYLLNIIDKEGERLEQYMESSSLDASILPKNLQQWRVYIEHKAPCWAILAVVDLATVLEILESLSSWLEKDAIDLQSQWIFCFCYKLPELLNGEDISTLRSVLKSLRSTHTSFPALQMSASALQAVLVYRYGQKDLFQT

[2] = target: spSMN(Y136C)•Gemin2 (Schizosaccharomyces pombe) (UniProt Q09808+P0CU08); assay: SEC-MALS; Superdex 200 10/300 GL, 0.5 ml/min, room temperature (20°C), 50 mM HEPES-NaOH pH 7.5, 250 mM NaCl, 5 mM DTT; self-association of the SMN•G2 unit, (SMN•G2)n; both purified
[3] = target: dmSMN(G206S)•Gemin2 (Drosophila melanogaster) (UniProt Q9VV74+Q9VVX0); assay: as above

- binding [1]: binds
B1: Schizosaccharomyces pombe SMN (protein, UniProt Q09808 1-152)
chain: MDQSQKEVWDDSELRNAFETALHEFKKYHSIEAKGGVSDPDSRLDGEKLISAARTEESISKLEEGEQMINQQTETTLEGDTHIQQFADNKGLSDEKPETRAAETHQEFMEVPPPIRGLTYDETYKKLIMSWYYAGYYTGLAEGLAKSEQRKD

- binding [2]: no binding
B2: spSMN(Y136C)•Gemin2 (complex, UniProt Q09808 1-152; P0CU08 1-235)
chain 1: B1 chain with Y136C
chain 2: T1 sequence

- binding [3]: no binding
B3: dmSMN(G206S)•Gemin2 (complex, UniProt Q9VV74 1-226; Q9VVX0 1-245)
chain 1: MSDETNAAVWDDSLLVKTYDESVGLAREALARRLADSTNKREEENAAAAEEEAGEISATGGATSPEPVSFKVGDYARATYVDGVDYEGAVVSINEEKGTCVLRYLGYENEQEVLLVDLLPSWGKRVRREQFLIAKKDEDEQLSRPKASAGSHSKTPKSSRRSRISGGLVMPPMPPVPPMIVGQGDGAEQDFVAMLTAWYMSGYYTSLYQGKKEASTTSGKKKTPKK
chain 2: MQHEPEDQTFQLQALEICEPDSSFDPQKPPESGEEYLMHMFYERKRCPAVVTKRSSKIRNNTGNTTLEMLDNPELPPFKCLLPTPEWRDEQVKSFQAARSQVLVLRKELANNNYDQSGEPPLTSDQEKWKEFCRNQQPLLSTLLHLTQNDLELLLEMLSKWLQDPNTTVDLLHDVWLARWLYATLVCLHLPLEPHVFSTLRYIARTCIHLRNQLKEDEVQRAAPYNLLLTLTVQVFAQNDFKDYI
